This assay in a line: qHTS Assay to Find Inhibitors of Chronic Active B-Cell Receptor Signaling. To be noted: ABC-DLBCL IkBa-CBG/CBR reporter, luminescence ratio (green luciferase fused to IkBa over red control in TMD8 lymphoma cells), 4 h. Put shortly: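 Cell line TMD8 (human ABC DLBCL), stably expressing tet-inducible CBG68-IkBa fusion and CBR; IMDM/0.5% FBS; cpd up to 46 uM; dox induction, 4 h, 37C/5% CO2; dual luminescence; green/red ratio; MG132 control.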
(In qHTS, concentration-response curves come from the screen itself.)

Where [1] appears, read: measured here: CBR red luminescence, cell number.
Setting [2] is: measured here: IkBa-CBG green luminescence.

Molecules are shown by their SMILES. The list shows a part of the results. Further columns of the screen follow, without active or inactive calls. Compounds called inactive in the main read-out are mostly missing here. The note in brackets gives the kind of curve behind each potency; many fits are weak.

For orientation: AC50 means the concentration at which the activity in the assay is half-maximal. Regarding `N#Cc1cccc(NC(=O)CN2CCCCCC2)c1`, under setting [1], the AC50 is 6.31 µM [rising, single point].

In the case of `Cc1ccc(-c2cn(-c3ccccc3)c(=S)[nH]2)cc1C`, under setting [1], the half-maximal activity concentration (AC50) was 20 µM [falling, partial curve].

For the molecule `CCn1c(=O)n(CCOC)c(=O)c2c3c(sc21)CCCC3`, under setting [1], the AC50 was 0.517 µM [falling, full curve, poor fit].

Take `COc1ccc2[nH]c(=O)c(CN(Cc3cccnc3)C(=O)Nc3ccccc3)cc2c1`: under setting [1], the AC50 was 12.6 µM [falling, partial curve].

Take `COc1ccc(CCNC(=O)C2c3ccccc3C(=O)N2CCC(C)C)cc1OC` (configuration not stated): the AC50 under setting [1] is 2.82 µM [rising, full curve, poor fit].

Turning to `O=C(CN1CCC(C(O)(c2ccccc2)c2ccccc2)CC1)Nc1ccccc1`, the half-maximal activity concentration (AC50) under setting [1] is 15.8 µM [falling, single point].

On to `C=CCN(CC=C)C(=O)c1ccc(OC2CCN(S(=O)(=O)N(C)C)CC2)cc1`, for which the AC50 under setting [1] is 1.58 µM [rising, partial curve].

`COC(=O)[C@H](Cc1ccccc1)NC(=O)Nc1ccc(C)cc1`: the AC50 under setting [1] is 4.11 µM [rising, full curve, poor fit].

Turning to `CC1(C)CC(=O)C(C=Nc2ccccc2)=C(O)C1`, the concentration at half-maximal activity (AC50) under setting [1] is 1.26 µM [rising, full curve, poor fit] and the concentration at half-maximal activity (AC50) under setting [2] is 15.8 µM [falling, partial curve, poor fit].

Turning to `C=CCc1cc(/C=C2/NC(=O)N(CC)C2=O)cc(OCC)c1OCc1ccc(C(=O)O)cc1`, the half-maximal activity concentration (AC50) under setting [1] was 29.1 µM [falling, single point].

Consider `COc1ccc(-c2cc(C3CCN(C(=O)OC(C)(C)C)CC3)[nH]n2)cc1`, for which the AC50 under setting [1] is 8.91 µM [falling, partial curve, poor fit].

As to `O=C(Nc1nnc(SCc2ccccc2Cl)s1)c1cccc([N+](=O)[O-])c1`, the half-maximal activity concentration (AC50) under setting [1] was 32.6 µM [falling, single point].

For `Cc1c2c(nc3ccccc13)CC(C)(C)CC2=O`, the AC50 under setting [1] is 25.1 µM [rising, single point].

For `COc1ccc(C2(C(=O)NC(C)C)CCCC2)cc1OC`, under setting [1], the AC50 was 0.259 µM [rising, full curve, poor fit].

Take `COc1ccc(Cl)cc1NC(=O)CN(C)Cc1cccs1`: the concentration at half-maximal activity (AC50) under setting [1] is 5.01 µM [rising, full curve].

On to `C=CCN1C(=O)C2(OCCCO2)c2cc(CCCC)ccc21`, for which, under setting [1], the AC50 is 22.4 µM [rising, single point].

Consider `Cc1ccc(O)c(NC(=O)c2cc(-c3cccs3)on2)c1`, for which the concentration at half-maximal activity (AC50) under setting [1] was 15.8 µM [falling, partial curve, poor fit].

For `CC(C)N(C(C)C)S(=O)(=O)c1ccc(N2CCc3ccccc3C2)nc1`, under setting [1], the concentration at half-maximal activity (AC50) was 12.6 µM [falling, partial curve, poor fit].

Take `Nc1c(C(=O)NC2CCCCC2)c2nc3ccccc3nc2n1/N=C/c1ccco1`: under setting [1], the AC50 was 22.4 µM [falling, single point].

Turning to `O=C(Nc1ccccc1C(=O)NCc1cccnc1)c1cccc([N+](=O)[O-])c1`, the AC50 under setting [1] was 15.8 µM [rising, partial curve, poor fit].

With `COc1ccccc1-n1c(=O)oc2ccc(Cl)cc2c1=O`, the AC50 under setting [1] was 6.51 µM [falling, partial curve, poor fit].

Regarding `CCC1=NN(C(=O)Cc2ccc(OC)c(OC)c2)C(O)(C(F)(F)F)C1` (configuration not stated), the AC50 under setting [1] was 18.4 µM [rising, single point].

As to `O=C(O)/C(=C\c1ccc(-c2ccccc2[N+](=O)[O-])o1)c1ccccc1`, under setting [1], the concentration at half-maximal activity (AC50) is 10 µM [falling, partial curve].

Regarding `Cc1onc(-c2c(Cl)cccc2Cl)c1C(=O)c1c[nH]c(C(=O)NC2CC2)c1`, under setting [1], the AC50 is 5.8 µM [rising, full curve, poor fit].

As for `COc1ccc(CN2CSC(=S)N(Cc3ccccc3)C2)cc1`, the concentration at half-maximal activity (AC50) is 31.6 µM [rising, single point] under setting [1] and 35.5 µM [falling, single point] under setting [2].

For `O=C(CCCN1CCC(O)(c2ccc(Br)cc2)CC1)c1ccc(F)cc1`, the AC50 under setting [1] is 6.51 µM [falling, single point].

`COCCn1c(SCc2cc(=O)n3cc(C)ccc3n2)nc2ccccc2c1=O`: the half-maximal activity concentration (AC50) under setting [1] was 5.62 µM [rising, full curve, poor fit].

For `C/C(=N/NC(=O)C1CC1(c1ccccc1)c1ccccc1)c1ccco1` (configuration not stated), the concentration at half-maximal activity (AC50) is 29.1 µM [falling, single point] under setting [1] and 32.6 µM [rising, partial curve, poor fit] under setting [2].

For the molecule `O=C(CSC1=NCCS1)Nc1nc2c(s1)CCCC2`, the AC50 under setting [1] was 35.5 µM [falling, single point].

In the case of `CN(C)c1ccc(/C=N/NC(=O)CCCO)cc1`, the half-maximal activity concentration (AC50) under setting [1] is 7.08 µM [falling, full curve].

Regarding `N#C/C(=C/c1cccs1)c1nc2ccccc2[nH]1`, the AC50 under setting [1] is 14.6 µM [falling, partial curve].

`CSc1ccc(C(c2c(C(=O)O)[nH]c3ccccc23)c2c(C(=O)O)[nH]c3ccccc23)cc1`: under setting [1], the half-maximal activity concentration (AC50) was 28.2 µM [rising, single point].

With `COc1cc(-c2cc(C(=O)NCc3ccco3)c3ccccc3n2)cc(OC)c1OC`, the concentration at half-maximal activity (AC50) under setting [1] is 6.31 µM [falling, partial curve].

Take `c1ccc(-c2ccc3[nH]ccc3c2)cc1`: the AC50 under setting [1] is 25.9 µM [rising, single point].

As for `O=C(O)CCn1c(O)c(C=C2N=c3ccccc3=N2)sc1=S`, the AC50 under setting [1] is 1.58 µM [falling, full curve].

With `COc1ccccc1Nc1cc(C(=O)NCc2cccnc2)c2ccccc2n1`, the AC50 under setting [1] is 15.8 µM [falling, single point].

As to `C/C(CCc1ccccc1)=N\NC(=O)c1ccccc1[N+](=O)[O-]`, the AC50 under setting [1] is 5.8 µM [falling, partial curve].

For the molecule `COC(=O)c1ccc2c(=O)n(Cc3ccc(C(=O)NCCCN4CCOCC4)cc3)c(=S)[nH]c2c1`, under setting [1], the AC50 was 0.794 µM [falling, full curve, poor fit].

On to `CN1CCC(=NNC(=O)C(=O)Nc2ccccc2)CC1`, for which, under setting [1], the concentration at half-maximal activity (AC50) was 6.31 µM [falling, partial curve].

On to `Cc1cc(C)nc(SCc2nnc(SCC(=O)Nc3nccs3)n2Cc2ccco2)n1`, for which the AC50 under setting [1] was 20 µM [falling, single point].

As for `CC1(C)CC(=O)C(=Cc2cn(CCC#N)nc2-c2ccc(F)cc2)C(=O)C1`, the concentration at half-maximal activity (AC50) under setting [1] is 25.9 µM [rising, single point].

In the case of `Cc1cc(N/N=C/c2ccccc2)nc(N)n1`, the AC50 under setting [1] was 14.1 µM [rising, single point].

In the case of `CCOC(=O)N1CCN(C(=O)c2ccc3c(Cl)c4c(nc3c2)CCCC4)CC1`, under setting [1], the AC50 was 12.6 µM [falling, single point].

As to `C[C@@]12CCC3[C@@](CCC4[C@@]3(C)CCC[C@@]4(C)C(=O)Nc3ccc(Cl)cc3)(CC1=O)C2` (some centres not stated), under setting [1], the AC50 was 18.4 µM [falling, partial curve].

Take `FC(F)(F)c1ccnc(Oc2ccc(C3=NCCS3)cc2)c1`: the half-maximal activity concentration (AC50) under setting [1] was 0.562 µM [rising, full curve].

Consider `C/C(=N\NC(=O)CCc1ccccc1)C1C(=O)c2ccccc2C1=O`, for which, under setting [1], the half-maximal activity concentration (AC50) is 11.2 µM [falling, single point].

For the molecule `Fc1ccc(Cn2nnnc2CN2CCc3ccccc3C2)cc1`, the AC50 under setting [1] is 18.4 µM [falling, partial curve].

With `Cc1ccc(NC(=O)c2cccc(Oc3ccc([N+](=O)[O-])cc3)c2)c(C(=O)O)c1`, the concentration at half-maximal activity (AC50) under setting [1] was 3.55 µM [falling, partial curve].

Regarding `Cc1ccc(C(c2c(C)[nH][nH]c2=O)c2c(C)[nH][nH]c2=O)cc1`, the AC50 under setting [1] was 7.08 µM [falling, partial curve].

On to `COCc1ccc(CN2CCCC(C(=O)Nc3ccc(-c4cccc(OC)c4)cc3)C2)o1` (configuration not stated), for which the AC50 under setting [1] was 14.1 µM [falling, single point].

Turning to `CN1CCN(C(=O)c2cnn3c(C(F)F)cc(C4CC4)nc23)CC1`, the AC50 under setting [1] is 1.84 µM [rising, partial curve, poor fit].

On to `CN(C(=O)CSc1nnc(-c2cccs2)n1C1CC1)C1CCS(=O)(=O)C1` (configuration not stated), for which the AC50 under setting [1] was 6.51 µM [rising, single point].

For `Cc1cccc(NS(=O)(=O)c2ccc3c(c2)Cc2cc(S(=O)(=O)Nc4cccc(C)c4C)ccc2-3)c1C`, under setting [1], the AC50 was 7.31 µM [falling, partial curve, poor fit].

In the case of `Cc1cnc(C(=O)OCC(=O)c2csc(N3CCCCC3)n2)cn1`, the AC50 under setting [1] was 3.98 µM [rising, full curve, poor fit].

Consider `OCCC1CN(Cc2cccc3nonc23)CCN1Cc1ccsc1` (configuration not stated), for which the AC50 under setting [1] was 4.47 µM [falling, partial curve, poor fit].

Turning to `COCCCNCCOCCSc1ccc(Cl)cc1`, under setting [1], the AC50 was 20.6 µM [falling, partial curve, poor fit].

Turning to `Cn1c(=O)cc(C(=O)N/N=C/c2ccc(Cl)cc2)[nH]c1=O`, under setting [1], the AC50 was 11.2 µM [falling, partial curve].

Turning to `COc1ccc(/C=N/NC(=O)c2nc(-c3ccccc3)cc(-c3ccccc3)n2)cc1OC`, under setting [1], the AC50 was 2.51 µM [rising, partial curve, poor fit].

With `CC(=O)Nc1cccc(NC(=O)Cc2ccc3ccccc3c2)c1`, the half-maximal activity concentration (AC50) under setting [1] is 4.47 µM [falling, full curve].

In the case of `O=C(CN1CCN(S(=O)(=O)c2ccc(Cl)s2)CC1)N1CCCCC1`, under setting [1], the half-maximal activity concentration (AC50) is 16.4 µM [rising, partial curve, poor fit].

As for `Cc1ccccc1C(=O)NNC1=NCCC1`, the AC50 under setting [1] is 0.82 µM [falling, full curve, poor fit].

Take `CCc1cccc(NC(=O)CCCN2C(=O)NC(C)(C)C2=O)c1`: the concentration at half-maximal activity (AC50) under setting [1] is 29.1 µM [rising, single point].

As for `O=C(c1ccc(COc2ccccc2Br)cc1)N1CCCCC1`, the half-maximal activity concentration (AC50) under setting [1] is 29.1 µM [falling, partial curve, poor fit].

As to `COCc1cc(=O)oc2cc(NC(=O)c3ccc(C(C)(C)C)cc3)ccc12`, the half-maximal activity concentration (AC50) under setting [1] is 14.1 µM [rising, single point].

(Values after PubChem BioAssay AID493014 (National Center for Advancing Translational Sciences (NCATS), 2011).)
